# The list does not hold the whole screen: it is rich in T/C values a quarter to a half above the control, in often repeated tests (any T/C) and in doses without a T/C. Further doses and runs are listed elsewhere. T/C gives the treated animals as a percentage of the vehicle group. Some entries give survivors of the animals treated and no T/C: the source files T/C as zero there, which appears to mark a toxic dose or a test without result, not a measured value. Some survivor counts are full or nearly so, which does not show that the dose was tolerated: survival well below the control is almost never listed, so the zero probably covers shortened survival too. Survivors were counted at the toxicity check, usually on the fifth day, unless a day is given; later deaths do not show. Schedule codes are those of the source, read here as Q, the interval in days (D) or hours (H), X, the number of doses. Some schedules carry Z or #; the key to these is not given. Some structures stand for samples that the source files as different forms (salt, stereo form or complex); doses refer to the form tested. For survival time, the PubChem record calls one and a half times the control and up active, and a quarter to a half above the control has no call in these data; cut-offs in other NCI protocols can differ. Some entries were tested several times; the results are listed from low to high.
# Test system: L1210 leukemia ip in BDF1 mice, survival T/C
# Assay: NCI In Vivo Anticancer Drug Screen. Data for tumor model L1210 Leukemia (intraperitoneal) in B6D2F1 (BDF1) mice
# Details: T/C endpoint: mean survival time, higher T/C = longer survival
# [1] = dose: 400.0 mg/kg/injection, schedule: Q01DX001 (ip), vehicle: saline
# [2] = dose: 400.0 mg/kg/injection, schedule: Q04DX003 (ip), vehicle: saline
# [3] = dose: 400.0 mg/kg/injection, schedule: Q01DX009 (ip), vehicle: saline with Tween-80
# [4] = dose: 100.0 mg/kg/injection, schedule: Q01DX009 (ip), vehicle: saline
# [5] = dose: 400.0 mg/kg/injection, schedule: Q01DX009 (ip), vehicle: saline
# [6] = dose: 200.0 mg/kg/injection, schedule: Q04DX002 (ip), vehicle: Klucel (hydroxypropylcellulose) (HPC)
# [7] = dose: 400.0 mg/kg/injection, schedule: Q04DX002 (ip), vehicle: Klucel (hydroxypropylcellulose) (HPC)
smiles,measurement,setting,value
O=C(OCC1OC(n2cnc3c(=S)nc[nH]c32)C(OC(=O)c2ccccc2)C1OC(=O)c1ccccc1)c1ccccc1 (stereo not given),T/C,"dose: 50.0 mg/kg/injection, schedule: Q01DX009 (ip), vehicle: saline",126 % of control
same,T/C,"dose: 59.0 mg/kg/injection, schedule: Q01DX Z (ip), vehicle: carboxymethylcellulose (CMC)",127 % of control
same,T/C,"dose: 85.0 mg/kg/injection, schedule: Q01DX009 (ip), vehicle: saline",143 % of control
same,T/C,"dose: 88.0 mg/kg/injection, schedule: Q01DX Z (ip), vehicle: carboxymethylcellulose (CMC)",127 % of control
same,T/C,"dose: 100.0 mg/kg/injection, schedule: Q01DX Z (ip), vehicle: saline",132 % of control
same,T/C,"dose: 134.0 mg/kg/injection, schedule: Q01DX Z (ip), vehicle: carboxymethylcellulose (CMC)",125 and 145 % of control
same,T/C,"dose: 150.0 mg/kg/injection, schedule: Q01DX Z (ip), vehicle: saline",132 % of control
same,T/C,"dose: 175.0 mg/kg/injection, schedule: Q01DX001 (ip), vehicle: saline",145 % of control
same,T/C,"dose: 175.0 mg/kg/injection, schedule: Q01DX009 (ip), vehicle: saline",143 % of control
same,T/C,"dose: 200.0 mg/kg/injection, schedule: Q01DX Z (ip), vehicle: carboxymethylcellulose (CMC)",131 and 137 % of control
same,T/C,"dose: 200.0 mg/kg/injection, schedule: Q01DX Z (ip), vehicle: methylcellulose (MC)",146 % of control
same,T/C,"dose: 265.0 mg/kg/injection, schedule: Q01DX001 (ip), vehicle: saline",128 % of control
same,survivor count,"dose: 333.0 mg/kg/injection, schedule: Q01DX Z (ip), vehicle: saline",6 of 6
same,T/C,[1],136 % of control
same,T/C,"dose: 443.0 mg/kg/injection, schedule: Q01DX Z (ip), vehicle: carboxymethylcellulose (CMC)",128 % of control
same,survivor count,"dose: 675.0 mg/kg/injection, schedule: Q01DX Z (ip), vehicle: methylcellulose (MC)",6 of 6
CCOC(=O)c1cnc2ccccn2c1=O,survivor count,"dose: 400.0 mg/kg/injection, schedule: Q01DX001 (ip), vehicle: saline with Tween-80",1 of 6
same,survivor count,[2],3 of 6
c1ccc(NC2=NCCN2)nc1,survivor count,"dose: 150.0 mg/kg/injection, schedule: Q01DX001 (ip), vehicle: saline",3 of 6
same,survivor count,"dose: 300.0 mg/kg/injection, schedule: Q01DX001 (ip), vehicle: saline",1 of 6
O=C1c2ccccc2C(=O)c2c(NCCNCCO)ccc(NCCNCCO)c21,T/C,"dose: 1.0 mg/kg/injection, schedule: Q01DX009 (ip), vehicle: saline with Tween-80",147 % of control
same,survivor count,"dose: 64.0 mg/kg/injection, schedule: Q01DX009 (ip), vehicle: Klucel (hydroxypropylcellulose) (HPC)",10 of 10
same,survivor count,"dose: 64.0 mg/kg/injection, schedule: Q01DX009 (ip), vehicle: saline with Tween-80",6 of 6
same,survivor count,"dose: 64.0 mg/kg/injection, schedule: Q01DX009 (ip), vehicle: water",10 of 10
N#Cc1cccc[n+]1Cc1ccc([N+](=O)[O-])cc1,survivor count,"dose: 200.0 mg/kg/injection, schedule: Q04DX003 (ip), vehicle: saline with Tween-80",6 of 6
same,survivor count,"dose: 400.0 mg/kg/injection, schedule: Q04DX003 (ip), vehicle: saline with Tween-80",5 of 6
S=c1[nH]c2ccccc2o1,survivor count,[3],0 of 6
CNC(C)COc1ccccc1 (stereo not given),survivor count,[4],3 of 6
[CH3][Sn]([CH3])([Br])[CH2]CC[CH2][Sn]([CH3])([CH3])[Br],survivor count,"dose: 6.25 mg/kg/injection, schedule: Q01DX009 (ip), vehicle: saline",0 of 3
same,survivor count,"dose: 12.5 mg/kg/injection, schedule: Q01DX009 (ip), vehicle: saline",0 of 3
same,survivor count,"dose: 25.0 mg/kg/injection, schedule: Q01DX009 (ip), vehicle: saline",0 of 3
same,survivor count,[4],0 of 3
same,survivor count,"dose: 200.0 mg/kg/injection, schedule: Q01DX009 (ip), vehicle: saline",0 of 3
same,survivor count,[5],0 of 3
O=c1[nH][nH]c(=O)c2ccccc12,survivor count,"dose: 400.0 mg/kg/injection, schedule: Q01DX009 (ip), vehicle: Klucel (hydroxypropylcellulose) (HPC)",6 of 6
CCCCCCCCCCCCCCCC[N+]1(CC)CCCC1,survivor count,"dose: 100.0 mg/kg/injection, schedule: Q04DX002 (ip), vehicle: saline",0 of 3
same,survivor count,"dose: 200.0 mg/kg/injection, schedule: Q04DX002 (ip), vehicle: saline",0 of 3
same,survivor count,"dose: 400.0 mg/kg/injection, schedule: Q04DX002 (ip), vehicle: saline",0 of 3
COC(=O)/C=C(\C)Nc1ccc(Cc2ccc(N/C(C)=C/C(=O)OC)cc2)cc1,survivor count,[1],6 of 6
CCCCCC(C[N+](C)(C)C)C(=O)/C=C/c1ccc(Cl)c(Cl)c1 (stereo not given),survivor count,"dose: 100.0 mg/kg/injection, schedule: Q04DX002 (ip), vehicle: Klucel (hydroxypropylcellulose) (HPC)",0 of 3
same,survivor count,[6],0 of 3
same,survivor count,[7],0 of 3
O=C(Oc1ccc([N+](=O)[O-])cc1)c1ccc(C[n+]2ccccc2)cc1,survivor count,[5],1 of 6
same,survivor count,[2],4 of 6
CCOP(=S)(NN=C1CCCCC1)OCC,survivor count,[1],0 of 4
CC(C)(C)C1CCC(Cl)C(O)C1 (stereo not given),survivor count,[5],3 of 6
NNC(=O)CNc1ccccc1F,survivor count,[6],0 of 3
same,survivor count,[7],0 of 3
C=C(Cl)C[N+]12CN3CN(CN(C3)C1)C2,survivor count,"dose: 100.0 mg/kg/injection, schedule: Q04DX003 (ip), vehicle: saline",1 of 6
same,survivor count,"dose: 200.0 mg/kg/injection, schedule: Q04DX003 (ip), vehicle: saline",0 of 6
same,survivor count,[2],0 of 6
O=S(=O)(N=C1C=CC(=NS(=O)(=O)c2ccccc2)C=C1)c1ccccc1,survivor count,"dose: 400.0 mg/kg/injection, schedule: Q01DX009 (ip), vehicle: gum acacia",6 of 6
O=S(=O)(O)c1ccc(-c2c3nc(c(-c4ccc(S(=O)(=O)O)cc4)c4ccc([nH]4)c(-c4ccc(S(=O)(=O)O)cc4)c4nc(c(-c5ccc(S(=O)(=O)O)cc5)c5ccc2[nH]5)C=C4)C=C3)cc1,survivor count,"dose: 200.0 mg/kg/injection, schedule: Q01DX009 (ip), vehicle: saline with Tween-80",3 of 6
same,survivor count,[3],1 of 6
O=NN(CCCl)C(=O)Nc1cc2c3ccccc3ccc2c2ccccc12,T/C,"dose: 266.0 mg/kg/injection, schedule: Q01DX009 (ip), vehicle: carboxymethylcellulose (CMC)",125 % of control
same,T/C,"dose: 400.0 mg/kg/injection, schedule: Q01DX009 (ip), vehicle: carboxymethylcellulose (CMC)",141 % of control
O=C(O)c1cncc(-c2ccccc2)c1,survivor count,"dose: 400.0 mg/kg/injection, schedule: Q04DX002 (ip), vehicle: saline with Tween-80",0 of 3
CCCN(CC#N)CCC,survivor count,"dose: 12.0 mg/kg/injection, schedule: Q01DX009 (ip), vehicle: Klucel (hydroxypropylcellulose) (HPC)",1 of 6
same,survivor count,"dose: 25.0 mg/kg/injection, schedule: Q01DX009 (ip), vehicle: Klucel (hydroxypropylcellulose) (HPC)",1 of 6
same,survivor count,"dose: 25.0 mg/kg/injection, schedule: Q04DX003 (ip), vehicle: Klucel (hydroxypropylcellulose) (HPC)",2 of 6
same,survivor count,"dose: 50.0 mg/kg/injection, schedule: Q01DX009 (ip), vehicle: Klucel (hydroxypropylcellulose) (HPC)",0 of 6
same,survivor count,"dose: 50.0 mg/kg/injection, schedule: Q04DX003 (ip), vehicle: Klucel (hydroxypropylcellulose) (HPC)",0 of 6
same,survivor count,"dose: 100.0 mg/kg/injection, schedule: Q04DX003 (ip), vehicle: Klucel (hydroxypropylcellulose) (HPC)",0 of 6
same,survivor count,"dose: 200.0 mg/kg/injection, schedule: Q04DX003 (ip), vehicle: Klucel (hydroxypropylcellulose) (HPC)",0 of 6
same,survivor count,"dose: 400.0 mg/kg/injection, schedule: Q04DX003 (ip), vehicle: Klucel (hydroxypropylcellulose) (HPC)",0 of 6
O=C(O)CN(CC(=O)O)Cc1ccccc1,survivor count,"dose: 80.0 mg/kg/injection, schedule: Q01DX001 (ip), vehicle: saline",2 of 4
same,survivor count,"dose: 100.0 mg/kg/injection, schedule: Q01DX001 (ip), vehicle: saline",2 of 4
same,survivor count,"dose: 200.0 mg/kg/injection, schedule: Q01DX001 (ip), vehicle: saline",0 of 4
same,survivor count,[1],0 of 4
CC(=O)NC(C)(C)Cc1ccccc1,survivor count,"dose: 200.0 mg/kg/injection, schedule: Q01DX001 (ip), vehicle: carboxymethylcellulose (CMC)",3 of 4
